No constants are given. Whether binding was seen depends on the method and setting. Binding seen in cells or lysates may run through a third protein. Here binding means that the protein was enriched with, or labelled near, the bait; the list need not be complete.
Biological target: BioID2-tagged endophilin A2 (SH3GL1-BioID2-HA) (UniProt Q99961)
Test: proximity labelling; BioID2: stable Ramos cells with SH3GL1-BioID2-HA, anti-IgM-stimulated, 1 uM biotin for 14 h, RIPA lysis, biotinylated proteins pulled down on Dynabeads Streptavidin C1, mass spectrometry (MaxQuant LFQ), compared with the empty-BioID2-HA control; 2 independent experiments

Protein sequences, listed by entry. Tags and fused reporters are not part of them.
UniProt Q99961: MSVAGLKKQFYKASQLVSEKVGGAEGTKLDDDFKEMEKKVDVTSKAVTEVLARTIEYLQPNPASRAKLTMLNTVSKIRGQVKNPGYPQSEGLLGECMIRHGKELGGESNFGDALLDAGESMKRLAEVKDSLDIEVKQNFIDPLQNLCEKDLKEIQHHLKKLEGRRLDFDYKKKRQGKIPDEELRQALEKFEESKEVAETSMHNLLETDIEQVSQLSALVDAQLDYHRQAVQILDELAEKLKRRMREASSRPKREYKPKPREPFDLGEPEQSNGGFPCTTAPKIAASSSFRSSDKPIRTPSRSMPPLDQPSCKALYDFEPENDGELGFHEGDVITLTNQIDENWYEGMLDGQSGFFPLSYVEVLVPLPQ
UniProt P62993: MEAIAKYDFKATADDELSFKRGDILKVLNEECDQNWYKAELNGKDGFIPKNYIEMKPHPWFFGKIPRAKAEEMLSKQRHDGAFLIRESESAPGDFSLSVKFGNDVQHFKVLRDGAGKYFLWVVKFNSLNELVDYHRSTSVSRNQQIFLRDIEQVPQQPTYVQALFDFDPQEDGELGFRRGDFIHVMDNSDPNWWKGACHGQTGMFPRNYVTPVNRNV

With GRB2 (from UniProt P62993 1-217) the binding was “binds”.
